We go through two substances from paper PMC10341550, “Beta-Secretase 1 Recruits Amyloid-Beta Precursor Protein to ROCK2 Kinase, Resulting in Erroneous Phosphorylation and Beta-Amyloid Plaque Formation” (International Journal of Molecular Sciences, 2023).

By UniProt entry, the sequences of proteins in these tests, tags left out. Residues count along the entry.
UniProt O75116: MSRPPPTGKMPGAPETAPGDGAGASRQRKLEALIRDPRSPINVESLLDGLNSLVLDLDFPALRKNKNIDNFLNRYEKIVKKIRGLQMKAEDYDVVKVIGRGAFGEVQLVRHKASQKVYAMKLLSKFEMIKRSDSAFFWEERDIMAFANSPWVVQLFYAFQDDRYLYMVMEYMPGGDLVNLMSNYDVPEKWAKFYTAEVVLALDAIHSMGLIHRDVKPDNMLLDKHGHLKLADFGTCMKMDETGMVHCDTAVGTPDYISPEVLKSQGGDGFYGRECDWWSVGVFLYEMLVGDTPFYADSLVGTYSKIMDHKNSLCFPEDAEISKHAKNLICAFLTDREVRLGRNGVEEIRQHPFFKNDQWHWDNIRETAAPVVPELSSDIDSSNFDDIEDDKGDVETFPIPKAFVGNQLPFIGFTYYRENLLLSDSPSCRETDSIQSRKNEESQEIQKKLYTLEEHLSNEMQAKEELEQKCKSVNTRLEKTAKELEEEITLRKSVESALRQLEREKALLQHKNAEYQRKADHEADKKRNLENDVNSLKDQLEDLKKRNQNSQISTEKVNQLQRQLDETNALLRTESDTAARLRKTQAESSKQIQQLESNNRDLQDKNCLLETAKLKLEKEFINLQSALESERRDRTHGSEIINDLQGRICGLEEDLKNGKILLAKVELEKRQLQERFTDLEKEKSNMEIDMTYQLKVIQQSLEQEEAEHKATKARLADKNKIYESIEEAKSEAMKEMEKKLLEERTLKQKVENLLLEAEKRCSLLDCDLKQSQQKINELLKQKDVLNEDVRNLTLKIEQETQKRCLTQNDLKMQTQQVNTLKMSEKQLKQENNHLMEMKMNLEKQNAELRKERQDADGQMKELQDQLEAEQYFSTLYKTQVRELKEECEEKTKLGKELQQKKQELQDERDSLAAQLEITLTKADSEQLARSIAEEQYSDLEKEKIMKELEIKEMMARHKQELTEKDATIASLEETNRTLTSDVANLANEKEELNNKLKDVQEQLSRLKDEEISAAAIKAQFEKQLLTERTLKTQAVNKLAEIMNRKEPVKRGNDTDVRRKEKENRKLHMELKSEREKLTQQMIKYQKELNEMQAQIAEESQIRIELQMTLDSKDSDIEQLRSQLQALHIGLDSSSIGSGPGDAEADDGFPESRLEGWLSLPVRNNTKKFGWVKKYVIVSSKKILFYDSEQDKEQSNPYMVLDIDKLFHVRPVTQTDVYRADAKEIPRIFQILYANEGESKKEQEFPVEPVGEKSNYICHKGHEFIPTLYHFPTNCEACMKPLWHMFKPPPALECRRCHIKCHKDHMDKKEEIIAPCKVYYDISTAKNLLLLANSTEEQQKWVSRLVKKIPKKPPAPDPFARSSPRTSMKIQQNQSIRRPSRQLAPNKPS
UniProt P05067, residues 740-770: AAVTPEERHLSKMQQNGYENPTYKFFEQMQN

These are yes or no findings as the source states them, for the method shown.

In the assay the target is Full-length ROCK2 protein (human ROCK2 1–1388) (human) (UniProt O75116). Put plainly: fluorescence polarisation; steady-state competition: 50 nM labelled BACE1 mixed with ROCK2 to 25–50% complex, increasing unlabelled APP construct; fit to the competition-binding Morrison equation; both purified. For orientation: Polarisation of emitted light reports the rotation of a fluorescent probe.

Take “APP_(646–664) fragment (from UniProt P05067-4 646-664) (domain or fragment)”: the binding entry is listed as “no binding”.

For the substance “APP_(665–695) fragment (from UniProt P05067-4 665-695) (domain or fragment)”, the binding result is “no binding”.
